Source: publication PMC4480739, “Oncogenic mutations of thyroid hormone receptor β” (Oncotarget, 2015)
No constants are given. Whether binding was seen depends on the method and setting. In cells and extracts the contact can be indirect. A result given as binding can be weak or reduced; the word gives no strength.

By UniProt entry, the sequences of proteins in these tests, tags left out. Where a name states a change or a piece, a line headed by the entry shows the natural chain unless it says otherwise.
UniProt P27986: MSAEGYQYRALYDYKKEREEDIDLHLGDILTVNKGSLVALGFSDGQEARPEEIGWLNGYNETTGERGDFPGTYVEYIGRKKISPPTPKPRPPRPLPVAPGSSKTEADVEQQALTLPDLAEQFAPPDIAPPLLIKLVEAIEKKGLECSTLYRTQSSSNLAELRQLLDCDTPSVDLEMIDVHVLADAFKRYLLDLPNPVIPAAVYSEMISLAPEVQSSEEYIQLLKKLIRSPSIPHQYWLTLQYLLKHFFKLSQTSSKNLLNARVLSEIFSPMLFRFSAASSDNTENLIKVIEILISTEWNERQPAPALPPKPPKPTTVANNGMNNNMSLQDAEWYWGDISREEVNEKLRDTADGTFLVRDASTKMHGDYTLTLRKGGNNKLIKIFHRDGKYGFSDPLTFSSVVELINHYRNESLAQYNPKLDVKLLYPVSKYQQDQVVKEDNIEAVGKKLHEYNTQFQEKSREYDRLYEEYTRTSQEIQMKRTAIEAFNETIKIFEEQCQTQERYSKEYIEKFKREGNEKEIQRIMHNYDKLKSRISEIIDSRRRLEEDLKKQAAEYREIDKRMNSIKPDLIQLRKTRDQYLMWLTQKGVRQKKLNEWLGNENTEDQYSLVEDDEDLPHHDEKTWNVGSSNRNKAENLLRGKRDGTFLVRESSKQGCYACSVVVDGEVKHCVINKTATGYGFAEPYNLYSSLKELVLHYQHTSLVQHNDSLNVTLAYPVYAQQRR
UniProt P10828: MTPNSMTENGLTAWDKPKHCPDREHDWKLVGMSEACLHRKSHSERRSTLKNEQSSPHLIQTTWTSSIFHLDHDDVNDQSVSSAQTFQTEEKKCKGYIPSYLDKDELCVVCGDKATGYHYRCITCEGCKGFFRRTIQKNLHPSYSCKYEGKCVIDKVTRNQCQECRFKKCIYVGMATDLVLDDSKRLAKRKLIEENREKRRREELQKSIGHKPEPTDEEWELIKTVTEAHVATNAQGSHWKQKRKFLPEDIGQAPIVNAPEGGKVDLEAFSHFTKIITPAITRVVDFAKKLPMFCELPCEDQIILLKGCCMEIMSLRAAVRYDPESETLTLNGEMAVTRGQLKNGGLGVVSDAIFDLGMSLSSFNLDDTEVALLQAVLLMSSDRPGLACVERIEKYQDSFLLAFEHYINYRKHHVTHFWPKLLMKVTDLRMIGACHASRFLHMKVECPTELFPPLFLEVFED

Target: p85α regulatory subunit of PI3K (human (endogenous in MDA-MB-468)) (UniProt P27986)
Test: co-IP; lysates (1 mg) of MDA-MB-468 cells expressing TRβ1 or mutants, treated without or with T3 (100 nM) for 24 hours; immunoprecipitated with monoclonal anti-p85α antibody, blotted with anti-TRβ1 (J53)

binding	Substance
binds	3Flag-Mkar (TRβ1 C-terminal frame-shift mutant Mkar) (from UniProt P10828) (receptor)
binds	3Flag-PV (TRβ1 C-terminal frame-shift mutant PV) (from UniProt P10828) (receptor)
binds	3Flag-Mdbs (TRβ1 C-terminal frame-shift mutant Mdbs) (from UniProt P10828) (receptor)
